In PubChem BioAssay AID445 (National Center for Advancing Translational Sciences (NCATS), 2006):
Some of the results follow. The main result of the screen is listed elsewhere. These columns were measured beside it and carry no call. Most of these compounds were active or inconclusive in the main read-out, so they are no random draw. Words in brackets tell the shape of the fitted curve; partial curves, single points and poor fits give uncertain potencies.

Assay: IkB Signaling
Settings: ABC-DLBCL IkBa-CBG/CBR dual luciferase ratio (green luciferase fused to IkBa over red control in OCI-Ly3 lymphoma cells), 4 h; measured here: control luc red channel unless noted
Procedure, shortened: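 In this assay, an IκBα–CBG68 fusion accumulates when IKK-driven degradation is blocked; native CBR normalizes for cell number. OCI-Ly3 cells were treated 4 h with compound and doxycycline, then green and red light read after Chroma-Glo addition.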

Compound	AC50
CCOc1cc(C(=O)Nc2ccc(-c3nc4ccccc4s3)cc2Cl)cc(OCC)c1OCC	0.0251 µM [falling, full curve]
Cc1cc(NC(=O)c2ccc(N(C)S(=O)(=O)c3ccccc3)cc2)no1	12.6 µM [falling, partial curve]
COc1ccc(C(=O)Nc2cc(S(=O)(=O)c3ccc(Cl)cc3)c(O)c(C)c2C)cc1	25.1 µM [falling, partial curve]
COc1cccc(NS(=O)(=O)c2ccc3[nH]cc(C(=O)NCCC(C)C)c(=O)c3c2)c1	10 µM [falling, partial curve]
COc1ccccc1NC(=O)Cn1nc(-c2ccc(C)cc2)c2c(c1=O)CCCC2	25.1 µM [falling, partial curve]
O=C(Nc1ccc(Br)cc1)C(Cc1ccccc1)NS(=O)(=O)c1cccc2nsnc12 (stereo not drawn)	3.98 µM [rising, single point]
COc1ccccc1-c1nc(-c2ccccn2)no1	6.31 µM [falling, partial curve]
CCc1ccc(-n2nc3cc(C)c(NC(=O)c4cc(OC)cc(OC)c4)cc3n2)cc1	0.0316 µM [rising, full curve]
CC(C)(C)c1ccc(C(=O)NCC(c2cccs2)S(=O)(=O)c2cccs2)cc1 (stereo not drawn)	25.1 µM [falling, partial curve, poor fit]
C=CCn1c(NC(=O)c2ccccc2)c(C#N)c2nc3ccccc3nc21	25.1 µM [falling, partial curve]
COc1cc(CN2CCc3nc(N4CCN(c5ccccn5)CC4)ncc3C2)cc(OC)c1OC	20 µM [falling, partial curve]
Brc1ccc(-c2nc3ccccc3s2)s1	1 µM [rising, full curve, poor fit]
O=C(Nc1ccc(Cl)cc1C(F)(F)F)c1cc(S(=O)(=O)N2CCOCC2)ccc1F	7.94 µM [falling, partial curve]
Nc1c(N2CCN(c3ccccc3)CC2)c2ccccc2oc1=O	20 µM [falling, partial curve, poor fit]
CC(C)(C)OC(=O)N1CCC(c2c(C(=O)NCc3ccco3)cnn2-c2ccccc2Cl)CC1	15.8 µM [falling, partial curve]
CC(=O)c1cc(-c2ccccc2)n(CCC(=O)NC(C)c2ccccc2)c1C (stereo not drawn)	7.94 µM [rising, partial curve, poor fit]
COC(=O)c1ccccc1NS(=O)(=O)c1ccc2c(c1)CCCN2C(C)=O	0.2 µM [falling, full curve, poor fit]
O=C(NCc1cccs1)c1ccc(CSc2nc3ccncc3n2Cc2ccccc2)cc1	12.6 µM [falling, partial curve]
CCOc1ccc(S(=O)(=O)NCCc2csc3nc(-c4ccc(F)cc4)nn23)cc1	20 µM [rising, partial curve]
CCOC(=O)c1ccc(NC(=O)Cn2c(=O)cc(C(F)(F)F)c3c(C)nn(C)c32)cc1	39.8 µM [falling, single point]
Cc1[nH]c2ccccc2c1SCCNC(=O)c1ccc(Br)o1	31.6 µM [falling, single point]

Compound	AC50
Fc1ccc(CSc2nc(NCc3ccccc3)c3ccccc3n2)cc1	25.1 µM [falling, partial curve]
COc1ccc(-c2cc(C(=O)Nc3cccc(O)c3)on2)cc1OC	25.1 µM [falling, single point]
Cc1cccc(CSCc2ccc(C(=O)NCCc3ccccc3)o2)c1	39.8 µM [falling, single point]
CCCC1C(c2ccccc2)C(C#N)(C#N)C2(C#N)CC1(N)NC2=O (stereo not drawn)	20 µM [falling, partial curve]
CCc1ccc(NC(=O)N(CCCN2CCOCC2)C(C)c2cc3cccc(OC)c3o2)cc1 (stereo not drawn)	25.1 µM [falling, partial curve, poor fit]
Cc1cc(C)c2c(CC(=O)Nc3ccc(S(=O)(=O)N4CCCCC4)cc3)coc2c1	3.16 µM [falling, partial curve]
O=C(c1cc2ccccc2oc1=O)N1CCN(c2ccc(F)cc2)CC1	20 µM [falling, partial curve]
COc1cccc(-c2nn(C)c3sc(C(=O)NCc4ccco4)cc23)c1	10 µM [falling, partial curve]
Nc1c(-c2nc(-c3ccccc3)no2)nnn1CC(=O)Nc1cccc(F)c1	15.8 µM [falling, partial curve]
COc1ccc(CC(=O)Nc2ccc(S(=O)(=O)NCC3CCCO3)cc2)cc1 (stereo not drawn)	20 µM [falling, partial curve]
CC(=O)c1ccc(NC(=O)CN(C)S(=O)(=O)c2cc3c(cc2Cl)NC(=O)CO3)cc1	39.8 µM [falling, single point]
CCCN(CCC)S(=O)(=O)c1ccc(C(=O)Nc2cccc(-c3nc4ccccc4[nH]3)c2)cc1	12.6 µM [falling, partial curve]
N#Cc1c(-n2ncnc2-c2ccccc2C(F)(F)F)sc2c1CCCCC2	2.51 µM [rising, partial curve, poor fit]
CCCN(CCC)C(=O)CSc1nc2n[nH]c(C)c2c(=N)n1-c1ccc(OC)cc1	25.1 µM [falling, partial curve]
Cc1ccc(NCc2cccn2-c2nnc(N3CCC(C(=O)NCCC(C)C)CC3)s2)cc1	15.8 µM [falling, single point]
COc1ccccc1N1CCN(c2nc3ccccc3n3cnnc23)CC1	39.8 µM [falling, single point]
CCc1ccc(-n2nnc(-c3nsc(NC(=O)c4ccccc4Cl)n3)c2C)cc1	7.94 µM [falling, partial curve]
Cc1ccc2c(c1)N(C(=O)N1CCC(C(=O)NCc3cccc(Br)c3)CC1)CCO2	15.8 µM [falling, partial curve]
COc1ccc(C)cc1NC(=O)COc1cc(=O)n(C)c2ccccc12	39.8 µM [rising, single point]
c1ccc(N2CCN(c3nc4ccccc4n4nnnc34)CC2)cc1	0.316 µM [falling, full curve]
O=C(Nc1ccc(Br)cc1)c1ccc(F)c(S(=O)(=O)NC2CCCCCC2)c1	25.1 µM [falling, partial curve]

Compound	AC50
O=C(COc1ccccc1)Nc1ccccc1C(=O)NCc1ccco1	15.8 µM [falling, partial curve]
COc1ccc(Cl)cc1C(=O)N(Cc1nc(-c2cccc(C)c2)no1)C(C)C	12.6 µM [falling, partial curve]
CCOC(=O)C1CCN(CC(=O)Nc2cc(C)c3c(=O)oc4ccccc4c3n2)CC1	25.1 µM [falling, partial curve, poor fit]
Cc1cn2c(=O)cc(COc3cccc(NC(=O)c4ccc(C(C)(C)C)cc4)c3)nc2s1	2.51 µM [falling, full curve]
Cc1nn(-c2ccccc2)c2nc(C3CC3)cc(C(=O)Nc3ccc(F)cc3)c12	15.8 µM [falling, partial curve]
O=C(CCn1cnc2onc(-c3ccc(F)cc3)c2c1=O)Nc1ccc(F)c(Cl)c1	6.31 µM [falling, single point]
CCc1c(C)sc2c1CCN(Cc1ccccc1)C2c1ccccc1 (stereo not drawn)	39.8 µM [falling, single point]
CCOC(=O)c1cc(-c2ccccc2)n(CCC(=O)NCc2ccccc2Cl)c1C	2 µM [rising, partial curve]
COc1ccc(Nc2nc3ccccc3nc2NS(=O)(=O)c2ccc(C)cc2)c(OC)c1	15.8 µM [falling, single point]
CCN(CC)c1cc(C)c2cc(NC(=O)c3cccc(OC)c3OC)ccc2n1	15.8 µM [rising, partial curve]
Cc1nc2nc(SCC(=O)N(C)Cc3ccccc3)nn2c(C)c1Cc1ccccc1Cl	25.1 µM [falling, partial curve]
Cc1c(Cl)cccc1-c1ccc(CNCCCSc2nnnn2C)o1	39.8 µM [falling, single point]
Cc1ccc(Sc2ccc(N3CCCC(C(=O)Nc4ccc(Br)cc4)C3)nn2)cc1 (stereo not drawn)	5.01 µM [falling, full curve]
COc1ccc(SCc2cc(=O)c3ccc(C)c(C)c3[nH]2)cc1	15.8 µM [falling, partial curve]
O=C(NCCc1ccc(Cl)cc1)c1cc(-c2ccccc2)n[nH]1	10 µM [falling, partial curve]
Cc1ccc(C)c(N2CCN(c3nc4ccccc4c(=O)n3-c3ccc(Cl)cc3)CC2)c1	20 µM [falling, single point]
Cc1ccc(C)c(-n2nnnc2SCC(=O)NCCC2=CCCCC2)c1	20 µM [falling, partial curve]
COc1ccc2c(c1)Cc1sc(NC(=O)c3ccccc3C)nc1-2	20 µM [falling, partial curve]
COc1cccc(CNC(=O)c2ccc(-c3nc(CS(=O)c4ccccc4)c(C)o3)cc2)c1 (stereo not drawn)	31.6 µM [falling, single point]
CCN(CCCNC(=O)CSc1cc(=O)n(CC)c2ccccc12)c1ccccc1	15.8 µM [falling, partial curve]
CCc1ccc(CNC(=O)Cn2ccc3cc(S(=O)(=O)N4CCCCCC4)ccc32)cc1	3.16 µM [falling, full curve, poor fit]

Taken from above.
AC50, COc1ccc(Nc2nc3ccccc3nc2NS(=O)(=O)c2ccc(C)cc2)c(OC)c1 reads 15.8 µM [falling, single point]
AC50, COc1cccc(CNC(=O)c2ccc(-c3nc(CS(=O)c4ccccc4)c(C)o3)cc2)c1 (stereo not drawn) reads 31.6 µM [falling, single point]
AC50, O=C(NCCc1ccc(Cl)cc1)c1cc(-c2ccccc2)n[nH]1 reads 10 µM [falling, partial curve]
AC50, Cc1cn2c(=O)cc(COc3cccc(NC(=O)c4ccc(C(C)(C)C)cc4)c3)nc2s1 reads 2.51 µM [falling, full curve]
